Laboratory results: the supplement of paper PMC3334620
The full ranking holds about 33,000 sequences; the median of “E-score (-0.5 to 0.5)” is about -0.0034, and the highest 2% start at about 0.25. Some of the results follow.

biological target: T1, Yap3 (UniProt P38749); assay: PBM E-score (8-mer binding enrichment) (E-score (-0.5 to 0.5)); higher = stronger / more preferred TF binding; settings: protein concentration: 100 nM; construct: GST-full length
T1 sequence: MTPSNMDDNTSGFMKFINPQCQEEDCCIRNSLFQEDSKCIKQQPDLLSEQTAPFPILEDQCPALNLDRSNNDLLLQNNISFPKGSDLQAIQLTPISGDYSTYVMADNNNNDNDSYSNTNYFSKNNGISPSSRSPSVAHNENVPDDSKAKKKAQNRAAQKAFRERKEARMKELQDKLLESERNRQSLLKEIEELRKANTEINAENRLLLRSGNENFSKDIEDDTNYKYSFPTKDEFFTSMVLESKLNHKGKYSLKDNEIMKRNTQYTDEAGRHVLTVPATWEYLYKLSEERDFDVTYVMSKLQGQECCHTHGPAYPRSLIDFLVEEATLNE
Procedure: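 Universal 'all 10-mer' protein binding microarrays (Agilent AMADID 015681) probed with GST-tagged S. cerevisiae TFs (full-length or DBD) made by in vitro transcription/translation (PURExpress), about 100-200 nM. Bound TF was detected with fluorescent anti-GST. Each ungapped 8-mer (which stands for itself and its reverse complement) is scored by the PBM enrichment score (E-score), a modified Wilcoxon-Mann-Whitney statistic from -0.5 to +0.5, computed with the Universal PBM Analysis Suite. Scale: above 0.35 generally sequence-specific binding.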

Sequence	PBM E-score
CAGGTAGG	-0.124
GAACAGCC	-0.155
ACATTCGG	0.0226
AGATACTA	-0.0778
AGGCCCTA	-0.174
GAGCAAAA	-0.0244
ATCCAGGA	0.0537
CACTACGC	-0.216
TGACTACA	-0.0249
AACCATAC	0.0832
CAACTGCG	-0.123
CTCCCTCC	-0.258
TCTAGGAA	-0.0119
GAGAAAGA	0.0339
GACTGAAA	0.0541
AGCCATCA	0.0981
AATATTAT	0.333
CGTTAACC	0.0991
CGAAAACC	0.0919
ATAGCTGC	0.0762
GCGGGCAA	-0.0516
AATTCGCC	0.125

Reformatted with each value named: part of the list above
ACATTCGG
  PBM E-score = 0.0226
AGATACTA
  PBM E-score = -0.0778
CAACTGCG
  PBM E-score = -0.123

Further results follow.

Sequence	PBM E-score
CTACGTGA	-0.079
CCCGAGAG	-0.19
CCCAACTA	0.188
CTAAGTCA	0.024
GGTTGGCA	-0.11
CATTCGTC	-0.00717
AAAGAGGG	-0.177
CTGCCATA	0.131
AGCGCTAC	-0.131
ATTTGCGC	0.0239
GATCCCAC	0.147
AGTGTTAT	0.189
AATCTTAG	0.165
TGGATCCA	0.153
GGCGAAAC	0.0862
GTAGATGA	0.16
ACTACGTA	0.13
CCCATCTA	-0.0177
ACACCATA	0.164
ATGATCCA	-0.141
AATCTAAC	0.0837
TAACCATA	0.13

Sequence	PBM E-score
AGCATATC	-0.0175
GCGTTTGA	-0.0237
AATATTGT	0.254
ATACCGCA	0.0107
CTGGTCCA	0.0655
CCTGTGCC	-0.202
GATAGCGA	0.144
AGAAGAAG	-0.148
CTCAGGCA	0.0487
CCAGCTAG	-0.148
ATACGCGA	0.117
ATACAGGG	0.14
CTCTACTA	0.166
CAGTCTCG	-0.163
CCGGATCA	0.0226
GTTGGCGA	-0.04
AATACGAT	0.187
CCGATGCA	-0.102
GTACTAGA	0.149
AAGCCTGA	-0.217
ACATCGGG	-0.00035
GAACCTAC	0.00034

Sequence	PBM E-score
ACTTAGTA	0.181
CGCGGTCA	-0.0274
ACTTACAG	0.017
AGTACGTG	-0.0755
ATCAACGC	0.102
GGTGCCCA	-0.208
GCCGCAAC	0.00606
ATACAGAG	-0.0144
CTTGCAAC	0.102
GCTGACAA	0.0561
AAAATCCC	0.0853
ACTTGTGA	0.0541
AAGGTATG	0.1
ATTCGAGA	0.0426
AGAAAGCA	0.232
TGAAAACA	0.0878
AACACAAG	0.0649
CTCCCGCA	-0.0925
GACATCAA	0.111
GGTAGTAC	-0.0701
